In this experiment the target is MeGRXC3P65L (GAL4 DNA-binding domain fusion, MeGRXC3P65L:pGBKT7) (cassava (Manihot esculenta)). Kind of experiment: two-hybrid; Matchmaker Gold system, yeast strain Y2HGold; MeGRXC3P65L:pGBKT7 as bait, TGA factors in pGADT7 as prey, pairwise co-transformed; growth on QDO/X/A (SD/-Ade/-His/-Leu/-Trp with 40 ug/mL X-alpha-Gal and 200 ng/mL Aureobasidin A).

Results are given in words; binding and its absence hold for the method and conditions named. Sequences can lack the tags named with a protein.

Data on one molecule can be found in article PMC8772167.

B1: Arabidopsis TGA4 (GAL4 activation domain fusion in pGADT7) (protein, UniProt Q39162 1-364)
chain: MNTTSTHFVPPRRFEVYEPLNQIGMWEESFKNNGDMYTPGSIIIPTNEKPDSLSEDTSHGTEGTPHKFDQEASTSRHPDKIQRRLAQNREAARKSRLRKKAYVQQLETSRLKLIHLEQELDRARQQGFYVGNGVDTNALSFSDNMSSGIVAFEMEYGHWVEEQNRQICELRTVLHGQVSDIELRSLVENAMKHYFQLFRMKSAAAKIDVFYVMSGMWKTSAERFFLWIGGFRPSELLKVLLPHFDPLTDQQLLDVCNLRQSCQQAEDALSQGMEKLQHTLAESVAAGKLGEGSYIPQMTCAMERLEALVSFVNQADHLRHETLQQMHRILTTRQAARGLLALGEYFQRLRALSSSWAARQREPT
Take B1: the binding entry is “no binding”.
